According to PubChem BioAssay AID1671190 (National Center for Advancing Translational Sciences (NCATS), 2021):
About 6,100 (1.1%) of roughly 580,000 compounds were called active. This list was built around the results that the source calls inconclusive (neither active nor inactive); the mix of calls is not that of the screen. The call rests on the fitted dose curve; in most records, active means well fitted inhibition curve with a large enough effect; inconclusive means small, poorly fitted or top-dose-only effect, or another doubt; inactive means no such curve, though single readings can be large or run the other way. Where the call is inconclusive, the potency comes from a doubtful curve fit.

Amino acid sequences for entries named in this document (tags omitted). A change or cut given only in a name is not applied to a line headed by its entry.
UniProt P18054: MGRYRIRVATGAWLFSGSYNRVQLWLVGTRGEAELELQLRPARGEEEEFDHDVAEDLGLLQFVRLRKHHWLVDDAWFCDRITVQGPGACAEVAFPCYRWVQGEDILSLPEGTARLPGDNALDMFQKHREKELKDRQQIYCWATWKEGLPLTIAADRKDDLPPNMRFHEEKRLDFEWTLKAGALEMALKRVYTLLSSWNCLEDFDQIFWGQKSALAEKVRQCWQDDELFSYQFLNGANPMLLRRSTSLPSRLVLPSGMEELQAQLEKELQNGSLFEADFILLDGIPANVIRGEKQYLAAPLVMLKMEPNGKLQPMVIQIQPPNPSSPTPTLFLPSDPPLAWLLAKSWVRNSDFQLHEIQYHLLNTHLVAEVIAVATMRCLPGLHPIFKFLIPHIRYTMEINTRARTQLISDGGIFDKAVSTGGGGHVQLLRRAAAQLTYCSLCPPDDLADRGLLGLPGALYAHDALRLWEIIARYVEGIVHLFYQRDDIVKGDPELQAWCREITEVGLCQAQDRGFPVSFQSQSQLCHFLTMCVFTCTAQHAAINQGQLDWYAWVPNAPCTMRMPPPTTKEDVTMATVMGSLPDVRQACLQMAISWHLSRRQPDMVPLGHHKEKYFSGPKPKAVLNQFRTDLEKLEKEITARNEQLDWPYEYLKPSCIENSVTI

Each compound was assayed against Polyunsaturated fatty acid lipoxygenase ALOX12 (Homo sapiens) (UniProt P18054) (assay: Primary qHTS assay for inhibitors of human arachidonate 12S-lipoxygenase (ALOX12): Round 2). Details: purified 12hLO, xylenol orange hydroperoxide absorbance; series mostly up to 108 µM.
In short: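 Purified human 12hLO at 150 nM in 25 mM Hepes, 0.01% Triton X-100, pH 7.0, preincubated 15 min at room temperature with compound. Reaction started with 40 uM arachidonic acid, 30 min at room temperature. Hydroperoxide measured by Fe-xylenol orange, 573/405 nm absorbance ratio.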
Potency means the concentration at half of the fitted maximal effect.

| Compound | Potency |
| --- | --- |
| CC(=O)Nc1ccc(S(=O)(=O)Nc2cccn(Cc3ccc(C)cc3)c2=O)cc1 | inactive |
| Cc1ccc(Nc2ccc([N+](=O)[O-])c3nonc23)cc1Cl | inconclusive: 4.47 µM [inhibitor, full curve, poor fit] |
| Cc1nc2sc(-c3ccccc3)cc2c(=O)n1-n1cccc1 | inactive |
| Cc1ccc(C)c(-c2nnc(NC(=O)c3ccc4c(c3)OCCO4)o2)c1 | inconclusive: 63.1 µM [inhibitor, partial curve, poor fit] |
| COC(=O)c1ccc(N2CCN(C)CC2)c(NC(=O)c2sc3ccccc3c2Cl)c1 | inconclusive: 79.4 µM [inhibitor, partial curve, poor fit] |
| CC(=O)Nc1ccc(Nc2nc3c(S(=O)(=O)c4cccc(Cl)c4)nnn3c3ccsc23)cc1 | inactive |
| COc1ccc(CCNC(=O)Cn2c(=O)c3cccn3c3ccc(F)cc32)c(OC)c1 | inconclusive: 126 µM [inhibitor, single point] |
| O=C(NCC1OCCc2ccccc21)c1ccco1 (stereo unspecified) | inconclusive: 5.62 µM [inhibitor, full curve, poor fit] |
| O=C(c1ccc(Br)c([N+](=O)[O-])c1)N1CCN(Cc2ccccc2)CC1 | inconclusive: 39.8 µM [inhibitor, partial curve] |
| Cc1cc(C)c(C)c(S(=O)(=O)N2CCn3c(nn(CC4CC4)c3=O)C2)c1C | inconclusive: 44.7 µM [inhibitor, full curve, poor fit] |
| COc1ccc(S(=O)(=O)Nc2cc(C(=O)O)ccc2C)cc1OC | inconclusive: 0.178 µM [inhibitor, full curve, poor fit] |
| CNC(=O)c1nn(C)c(=O)[nH]c1=O | inactive |
| COc1ccc(S(=O)(=O)N2CCN(CC(=O)Nc3c(C)n[nH]c3C)CC2)cc1OC | active: 0.562 µM |
| Cc1cccc(C(=O)N2CCC(=O)N([C@H](COCc3cccc(C(F)(F)F)c3)Cc3ccccc3)CC2)c1 | inconclusive: 44.7 µM [inhibitor, partial curve, poor fit] |
| Cc1cc(Br)cn2c(Cc3ccsc3)c(-c3ccc(F)cc3)nc12 | inconclusive: 100 µM [inhibitor, partial curve, poor fit] |
| O=S(=O)(Nc1cccc2cccnc12)c1ccc(S(=O)(=O)N2CCCC2)cc1 | inactive |
| COc1ccc([C@H]2CC(=O)C=C(c3cc4ccccc4s3)C2)cc1OC | inconclusive: 56.2 µM [inhibitor, partial curve, poor fit] |
| COCCN1C(=O)c2cccn2CC1CNC(=O)c1ccc(Cc2c(C)n[nH]c2C)o1 (stereo unspecified) | inconclusive: 79.4 µM [inhibitor, partial curve, poor fit] |
| CC(C)(C(=O)NCCc1c[nH]c2ccccc12)c1ccccc1 | inconclusive: 100 µM [inhibitor, single point] |
| CN1CCN(CC(=O)NN(Cc2ccccc2)c2ccccc2)CC1 | inconclusive: 2 µM [inhibitor, full curve, poor fit] |
| CCOc1ccc(S(=O)(=O)Nc2ccc(C(=O)N3CC(C)OC(C)C3)cc2)cc1 (stereo unspecified) | inactive |

As a short view, 11 of the compounds above.

| Compound | Potency |
| --- | --- |
| COc1ccc(CCNC(=O)Cn2c(=O)c3cccn3c3ccc(F)cc32)c(OC)c1 | inconclusive: 126 µM [inhibitor, single point] |
| O=C(NCC1OCCc2ccccc21)c1ccco1 (stereo unspecified) | inconclusive: 5.62 µM [inhibitor, full curve, poor fit] |
| O=C(c1ccc(Br)c([N+](=O)[O-])c1)N1CCN(Cc2ccccc2)CC1 | inconclusive: 39.8 µM [inhibitor, partial curve] |
| Cc1cc(C)c(C)c(S(=O)(=O)N2CCn3c(nn(CC4CC4)c3=O)C2)c1C | inconclusive: 44.7 µM [inhibitor, full curve, poor fit] |
| COc1ccc(S(=O)(=O)Nc2cc(C(=O)O)ccc2C)cc1OC | inconclusive: 0.178 µM [inhibitor, full curve, poor fit] |
| CNC(=O)c1nn(C)c(=O)[nH]c1=O | inactive |
| COc1ccc(S(=O)(=O)N2CCN(CC(=O)Nc3c(C)n[nH]c3C)CC2)cc1OC | active: 0.562 µM |
| Cc1cccc(C(=O)N2CCC(=O)N([C@H](COCc3cccc(C(F)(F)F)c3)Cc3ccccc3)CC2)c1 | inconclusive: 44.7 µM [inhibitor, partial curve, poor fit] |
| Cc1cc(Br)cn2c(Cc3ccsc3)c(-c3ccc(F)cc3)nc12 | inconclusive: 100 µM [inhibitor, partial curve, poor fit] |
| O=S(=O)(Nc1cccc2cccnc12)c1ccc(S(=O)(=O)N2CCCC2)cc1 | inactive |
| COc1ccc([C@H]2CC(=O)C=C(c3cc4ccccc4s3)C2)cc1OC | inconclusive: 56.2 µM [inhibitor, partial curve, poor fit] |

Following part

| Compound | Potency |
| --- | --- |
| Cc1ccc(C2c3[nH]c4ccccc4c3C[C@H]3C(=O)N(c4ccccc4C(=O)N4CCC[C@@H]4C(=O)O)C(=O)N23)cc1 (stereo partly specified) | inconclusive: 56.2 µM [inhibitor, partial curve, poor fit] |
| COc1cccc(NC(=O)CN(C)C(=O)c2cccc(S(=O)(=O)N3CCc4ccccc43)c2)c1 | inconclusive: 112 µM [inhibitor, partial curve, poor fit] |
| Cc1ccc(Nc2nc3ccc(Cl)cc3n3cnnc23)cc1F | inactive |
| CN(C)c1ccc(-c2nc(NC3CCNCC3)c3ccccc3n2)cc1 | inconclusive: 63.1 µM [inhibitor, partial curve, poor fit] |
| CCC(Oc1ccc(F)cc1)C(=O)Nc1ccc(OC)c2ncccc12 (stereo unspecified) | inactive |
| CC1CN(c2ccccc2C=O)CC(C)O1 (stereo unspecified) | inactive |
| CCC1NC(=O)c2cc3ccccc3cc2-n2c1nc1ccc(F)cc1c2=O (stereo unspecified) | inconclusive: 44.7 µM [inhibitor, partial curve, poor fit] |
| C[S+](=O)([O-])N1CC2(Cc3ccccc3N(C(=O)Cc3ccc(F)cc3)C2)C1 | inactive |
| N#Cc1c(-c2ccc(F)cc2)cc(-c2ccccc2)nc1SCC(=O)NCC(=O)O | inconclusive: 56.2 µM [inhibitor, partial curve, poor fit] |
| CCn1c(SCC(=O)Nc2ccc(Br)cc2)nc2sc3c(c2c1=O)CCN(C)C3 | inconclusive: 56.2 µM [inhibitor, partial curve, poor fit] |
| NS(=O)(=O)c1ccc(CCNC(=O)COC(=O)Cc2ccc([N+](=O)[O-])cc2)cc1 | inactive |
| COc1ccccc1CN1CC(c2noc(-c3cc(C)cc(C)c3)n2)CC1=O (stereo unspecified) | inconclusive: 56.2 µM [inhibitor, partial curve, poor fit] |
| Cn1c(C(=O)N2CCCC(C(=O)NCc3ccc4c(c3)OCO4)C2)cc2sccc21 (stereo unspecified) | inactive |
| O=C(COc1cccc(NC(=O)c2cccc([N+](=O)[O-])c2)c1)c1ccc(F)cc1 | inactive |
| CN1CCN(CCCNC(=O)Cn2c(-c3cccs3)cc3cc(Cl)ccc32)CC1 | inconclusive: 63.1 µM [inhibitor, partial curve, poor fit] |
| O=C(O)c1ccccc1C(=O)OCc1c(-c2ccccc2)ncc2ccccc12 | inconclusive: 6.31 µM [inhibitor, full curve, poor fit] |
| O=C(COc1ccc(F)cc1)Nc1ccc(-c2nnc3n2CCCC3)cc1 | active: 31.6 µM |
| CC(=O)Nc1ccc(S(=O)(=O)n2cnc(C)c2)cc1 | inconclusive: 5.62 µM [inhibitor, full curve, poor fit] |
| CCC(C)c1ccc(OCCCCN2CCOCC2)cc1 (stereo unspecified) | inconclusive: 1 µM [inhibitor, full curve, poor fit] |
| Cc1cnc(NC(=O)Cn2ccc3ccc(Br)cc32)s1 | inconclusive: 89.1 µM [inhibitor, partial curve, poor fit] |
